Data: US6461815
For at least one entry, the source does not settle the construct or the ends of the probe. No signal at the amounts used counts as a negative.

Assays:
[1] = system: 30S ribosomal subunit (mRNA-programmed, activated + ribonucleoprotein); experiment: footprint; conditions: poly(A)-programmed, 20 C, purified native protein
[2] = system: 30S ribosomal subunit (mRNA-programmed, activated + ribonucleoprotein); experiment: filter binding; conditions: purified native protein

UCAGACUUUUAAUCUGA [ASLLys3(SUU), s2U34 anticodon stem-loop]
binding result ([1]; s2U at tRNA position 34, same 16S P-site footprint as native tRNALys): binds

UCAGACUUUUAAUCUGA [ASLLys3(UUU), unmodified anticodon stem-loop]
binding result ([2]; AAA- or AAG-programmed, CMN buffer 20 mM MgCl2): no binding | binding result ([1]; no substantial protection of P-site nucleotides): no binding

UCAGACUUUUAAUCUGA [ASLLys(UUU) with t6A37]
binding result ([2]; t6A (N6-threonylcarbamoyladenosine) at tRNA position 37, t6A37 critical for binding versus unmodified A37, as in FIG. 2): binds
